Part of at least one peptide drawing is inferred or uncertain, most often the ends. Where a SMILES comes first, the peptide text is derived from it. The star is where a group is joined. Cholyl = C[C@H](CCC(=O)*)[C@H]1CC[C@H]2[C@@H]3[C@H](O)C[C@@H]4C[C@H](O)CC[C@]4(C)[C@H]3C[C@H](O)[C@]12C
Test system: EL4 cells
Assay: Cytochrome C cytosolic delivery, cell death (annexin V binding) by flow cytometry
Assay type: cell-based
Method: Cytochrome C is a protein that is normally entrapped in the mitochondria but its release into the cytosol in known to induce cell death. An experiment was performed in which EL4 cells were incubated with recombinant cytochrome C either alone (FIG. 8A) or mixed with CA-SV40 NLS (47 μM) (FIG. 8B). Successful delivery of cytochrome C to the cytosol in its active form was assessed by measuring cell death (annexin V binding) via flow cytometry.

Q: Which results are given for `CC(C)[C@H](NC(=O)[C@H](CCCCN)NC(=O)[C@H](CCCNC(=N)N)NC(=O)[C@H](CCCCN)NC(=O)[C@H](CCCCN)NC(=O)[C@H](CCCCN)NC(=O)[C@@H]1CCCN1C(=O)CNC(=O)[C@H](Cc1ccc(O)cc1)NC(=O)CNC(=O)[C@H](CS)NC(=O)CC[C@@H](C)[C@H]1CC[C@H]2[C@@H]3[C@H](O)C[C@@H]4C[C@H](O)CC[C@]4(C)[C@H]3C[C@H](O)[C@]12C)C(=O)NCC(=O)NCC(=O)O` [CA-SV40] (Cholyl-CGYGPKKKRKVGG-OH)?
A: increase of cell death upon coincubation with cytochrome C (19% to 61%): more than three-fold; cell death (annexin V binding) (cytochrome C mixed with CA-SV40 NLS (47 μM)): 61%
